The list does not hold the whole screen: it is rich in T/C values a quarter to a half above the control, in often repeated tests (any T/C) and in doses without a T/C. Further doses and runs are listed elsewhere. T/C gives the treated animals as a percentage of the vehicle group. Some entries give survivors of the animals treated and no T/C: the source holds a T/C of zero for them, seemingly a mark for toxic or unscored doses. Some survivor counts are full or nearly so, which does not show that the dose was tolerated: the source hardly ever lists a survival T/C far under the control, and the zero likely stands for such cases as well. Survivors were counted at the toxicity check, usually on the fifth day, unless a day is given; later deaths do not show. Schedule codes are those of the source, read here as Q, the interval in days (D) or hours (H), X, the number of doses. Where survival is the endpoint, this PubChem deposit counts one and a half times the control or more as active, and values a quarter to a half above the control carry no call in these data; other NCI protocols may use other cut-offs. Some T/C values carry the count of animals alive at the toxicity check (mostly the fifth day); without a count, all were alive then.

This note sets out measurements from PubChem BioAssay AID292 (DTP/NCI, 2004).

The test system of the assay is B6C3F1 mice, ip Sarcoma M5076, median survival T/C. As to the kind of experiment: NCI In Vivo Anticancer Drug Screen. Data for tumor model Sarcoma M5076 (intraperitoneal) in B6C3F1 mice. The note with it: T/C endpoint: median survival time, schedule: Q04DX004 (ip), higher T/C = longer survival. An outline of the steps:
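Transplantable tumour in mice; compound-treated vs vehicle-treated groups. Read-out: survival. Value = treated/control ratio.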

The mark [1] stands for this setting: dose: 200.0 mg/kg/injection, vehicle: saline.
Setting [2] is: dose: 50.0 mg/kg/injection, vehicle: Klucel (hydroxypropylcellulose) (HPC).
Setting [3] is: dose: 100.0 mg/kg/injection, vehicle: Klucel (hydroxypropylcellulose) (HPC).
The mark [4] stands for this setting: dose: 200.0 mg/kg/injection, vehicle: Klucel (hydroxypropylcellulose) (HPC).
[5] abbreviates: dose: 400.0 mg/kg/injection, vehicle: Klucel (hydroxypropylcellulose) (HPC).
[6] abbreviates: dose: 800.0 mg/kg/injection, vehicle: saline with Tween-80.
Where [7] appears, read: dose: 200.0 mg/kg/injection, vehicle: saline with Tween-80.
The mark [8] stands for this setting: dose: 800.0 mg/kg/injection, vehicle: Klucel (hydroxypropylcellulose) (HPC).
[9] abbreviates: dose: 100.0 mg/kg/injection, vehicle: saline with Tween-80.
Where [10] appears, read: dose: 50.0 mg/kg/injection, vehicle: saline with Tween-80.

For `COc1ccccc1-n1cc[n+](C)c1/C=N/O`, the survivor count (dose: 100.0 mg/kg/injection, vehicle: saline) is on record as 0 of 10 on day 14; the survivor count under setting [1] was 0 of 10 on day 14; the survivor count (dose: 400.0 mg/kg/injection, vehicle: saline) was 0 of 10 on day 14.
For `COc1cc(C2=NCCc3cc4c(cc32)OCO4)cc(OC)c1OC`, the survivor count under setting [1] is reported as 4 of 10 on day 14.
For the compound `Cc1nc2cc3c(cc2n2cccc12)oc1ccccc13`, the survivor count was 10 of 10 on day 14 (dose: 25.0 mg/kg/injection, vehicle: Klucel (hydroxypropylcellulose) (HPC)); 10 of 10 on day 14 under setting [2]; 10 of 10 on day 14 under setting [3]; 8 of 10 on day 14 under setting [4]; 6 of 10 on day 14 under setting [5].
Consider `C=CC(=O)OCCOCN(COCCOC(=O)C=C)c1nc(N(COCCOC(=O)C=C)COCCOC(=O)C=C)nc(N(COCCOC(=O)C=C)COCCOC(=O)C=C)n1`, for which, for the setting “dose: 300.0 mg/kg/injection, vehicle: saline with Tween-80”, the survivor count is 0 of 10 on day 14.
Take `CCOC(=O)Nc1cc2c(c(N)n1)N=C(c1ccccc1)CO2`: under setting [6], the T/C is 135 % of control.
Consider `O=c1[nH]c(=O)n(C2CC(O)C(CO)O2)cc1C(F)(F)F` (stereo unspecified), for which the T/C runs as follows: under setting [6], 125 % of control; (dose: 1600.0 mg/kg/injection, vehicle: saline with Tween-80) 133 % of control.
As to `COc1cc(/C=C/[N+](=O)[O-])cc(Br)c1OC`, under setting [7], the survivor count was 2 of 10 on day 14.
Take `O=C1CSC(c2cccs2)N1c1nncs1` (stereo unspecified): under setting [5], the T/C is 127 % of control. The survivor count under setting [8] is given as 1 of 10 on day 14.
As to `COC(=O)Nc1cccc(-c2nc3ccc(NC(=O)OC)cc3c(=O)n2-c2ccccc2)c1`, the T/C was 139 % of control [9 of 10 alive on day 14] (dose: 60.0 mg/kg/injection, vehicle: Klucel (hydroxypropylcellulose) (HPC)) and 141 % of control (dose: 90.0 mg/kg/injection, vehicle: Klucel (hydroxypropylcellulose) (HPC)). Also, the survivor count is 2 of 10 on day 14 under setting [4] and 2 of 9 on day 14 (dose: 300.0 mg/kg/injection, vehicle: Klucel (hydroxypropylcellulose) (HPC)).
For the compound `NC(Cc1ccc[se]1)C(=O)O` (stereo unspecified), the survivor count under setting [9] is 0 of 5 on day 14 and the survivor count under setting [7] is recorded as 0 of 4 on day 14.
For the compound `c1ccc2c(c1)oc1cc3c(cc12)n1nnnc1c1cccn31`, the survivor count is listed as 10 of 10 on day 14 (dose: 25.0 mg/kg/injection, vehicle: saline with Tween-80); 10 of 10 on day 14 under setting [10]; 10 of 10 on day 14 under setting [9]; 10 of 10 on day 14 under setting [7]; 9 of 10 on day 14 (dose: 400.0 mg/kg/injection, vehicle: saline with Tween-80).
Consider `[N-]=[N+]=CC(=O)CCC(NC(=O)OCc1ccccc1)C(=O)OCc1ccccc1` (stereo unspecified), for which the T/C by setting is: under setting [2], 145 % of control; under setting [3], 141 % of control; under setting [4], 130 % of control [7 of 9 alive on day 14]; (dose: 400.0 mg/kg/injection, vehicle: Klucel (hydroxypropylcellulose) (HPC), evaluated on day 60) 125 % of control [8 of 10 alive on day 14]; (dose: 400.0 mg/kg/injection, vehicle: Klucel (hydroxypropylcellulose) (HPC), evaluated on day 75) 143 % of control [8 of 9 alive on day 14].
On to `O=C(Nc1ccc(Cl)c(Cl)c1)C1C(=O)C(=O)N(c2ccc(Cl)c(Cl)c2)C1=O` (stereo unspecified), for which the survivor count is listed as 9 of 10 on day 14 under setting [5] and 6 of 10 on day 14 under setting [8].
Consider `C[C@H](N)C(=O)N[C@@H]1[C@H]2C(=C(O)C[C@@H](O)[C@@H]2O)C(=O)O[C@]1(C)C(Cl)Cl`, for which the T/C was 128 % of control (dose: 0.75 mg/kg/injection, vehicle: saline); 137 % of control (dose: 1.3 mg/kg/injection, vehicle: saline); 140 % of control (dose: 1.5 mg/kg/injection, vehicle: saline); 138 % of control (dose: 3.0 mg/kg/injection, vehicle: saline). For the same compound, the survivor count (dose: 12.0 mg/kg/injection, vehicle: saline) was 3 of 10 on day 14.
Turning to `C=C(C)[C@H]1Cc2c(ccc3c2O[C@@H]2COc4cc(OC)c(OC)cc4[C@@H]2C3=O)O1`, the survivor count is listed as 1 of 10 on day 14 under setting [10] and 0 of 10 on day 14 under setting [9].
